Results as given in the supplement of paper PMC6078165.
Values are relative to the signal before dosing, not to a vehicle control; the signal also falls without drug.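 Labels refer to human fibroblasts, largely primary: uterine (C12385, HUF), lung (H6013), bone (Hs27A), adrenal (HADF), skin (WS1), plus mammary HMF and breast cancer-associated Hs343T. Cancer lines are basal-like or mesenchymal-like triple-negative breast cancer. The paper counts as hits responses shifting over 3x the replicate standard deviation. The tissue of the other fibroblasts is not given here.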

Test system: Hs578T
Experiment: relative JC-1 red fluorescence (viability) vs pre-drug, coculture with fibroblast (fraction); higher = more viable cancer cells
Experimental: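 JC-1 labelled TNBC cells cocultured 1:1 (1,500 cells each) with CellTrace Violet stained primary or stromal fibroblasts in 384-well plates in FluoroBrite medium, treated with one of 42 anticancer drugs at 0.1, 1, 10 or 100 uM. JC-1 red fluorescence (mitochondrial integrity in cancer cells only) was read by plate reader every 8 h for 72 h. Values are normalised to each well's pre-drug value. The stock of one drug was tenfold lower, so its dose labels may be too high.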

CCCCCOC(=O)Nc1nc(=O)n([C@@H]2O[C@H](C)[C@@H](O)[C@H]2O)cc1F [Capecitabine]
relative JC-1 red fluorescence
Settings	8 h	16 h	24 h	32 h	40 h	48 h	56 h	64 h	72 h
0.1 µM	0.969	0.854	0.776	0.732	0.652	0.602	0.565	0.511	0.491
1 µM	0.913	0.762	0.692	0.646	0.578	0.524	0.498	0.458	0.436

relative JC-1 red fluorescence
Settings	8 h	16 h	24 h	32 h	40 h	48 h	56 h	64 h	72 h
0.1 µM, coculture fibroblast: C12385	0.834	0.713	0.649	0.553	0.493	0.454	0.426	0.421	0.417
0.1 µM, coculture fibroblast: H6013	0.8032	0.752	0.694	0.661	0.619	0.607	0.585	0.576	0.547
0.1 µM, coculture fibroblast: H6019	0.775	0.675	0.609	0.518	0.474	0.444	0.409	0.392	0.367
0.1 µM, coculture fibroblast: H6076	0.97	0.883	0.826	0.806	0.764	0.747	0.724	0.717	0.708
0.1 µM, coculture fibroblast: H6231	0.8985	0.792	0.724	0.696	0.635	0.616	0.576	0.573	0.571
0.1 µM, coculture fibroblast: HADF	0.901	0.817	0.777	0.749	0.73	0.711	0.684	0.682	0.66
0.1 µM, coculture fibroblast: HCFa	0.822	0.734	0.658	0.595	0.524	0.492	0.446	0.425	0.386
0.1 µM, coculture fibroblast: HCPF	0.902	0.824	0.775	0.763	0.708	0.701	0.685	0.655	0.649
0.1 µM, coculture fibroblast: HHSteC	0.854	0.749	0.6742	0.605	0.539	0.505	0.474	0.444	0.407
0.1 µM, coculture fibroblast: HMF	0.881	0.808	0.74	0.706	0.641	0.616	0.5789	0.5593	0.548
0.1 µM, coculture fibroblast: HPFa	0.917	0.825	0.761	0.713	0.678	0.643	0.604	0.584	0.54
0.1 µM, coculture fibroblast: HUF	0.874	0.737	0.695	0.586	0.518	0.479	0.449	0.4398	0.43
0.1 µM, coculture fibroblast: Hs27A	0.90428	0.8269	0.7583	0.6955	0.6389	0.6181	0.585	0.569	0.523
0.1 µM, coculture fibroblast: Hs343T	0.964	0.834	0.765	0.7361	0.6519	0.621	0.581	0.549	0.538
0.1 µM, coculture fibroblast: WS1	0.793	0.687	0.626	0.537	0.481	0.452	0.421	0.414	0.409
1 µM, coculture fibroblast: C12385	0.8528	0.75	0.679	0.5996	0.532	0.503	0.477	0.465	0.459
1 µM, coculture fibroblast: H6013	0.918	0.838	0.795	0.763	0.726	0.709	0.6863	0.6901	0.6727
1 µM, coculture fibroblast: H6019	0.791	0.6939	0.679	0.602	0.573	0.552	0.525	0.503	0.48
1 µM, coculture fibroblast: H6076	0.901	0.784	0.747	0.7316	0.6862	0.684	0.668	0.674	0.672
1 µM, coculture fibroblast: H6231	0.903	0.821	0.727	0.702	0.639	0.616	0.584	0.567	0.563
1 µM, coculture fibroblast: HADF	0.9232	0.843	0.791	0.747	0.714	0.69	0.657	0.647	0.626
1 µM, coculture fibroblast: HCFa	0.8598	0.7423	0.69507	0.643	0.593	0.575	0.541	0.529	0.494
1 µM, coculture fibroblast: HCPF	0.889	0.764	0.7633	0.731	0.68	0.666	0.664	0.63	0.624
1 µM, coculture fibroblast: HHSteC	0.8937	0.786	0.743	0.697	0.643	0.615	0.584	0.558	0.528
1 µM, coculture fibroblast: HMF	0.884	0.748	0.706	0.675	0.615	0.595	0.562	0.537	0.525
1 µM, coculture fibroblast: HPFa	0.927	0.798	0.729	0.68	0.639	0.599	0.567	0.544	0.498
1 µM, coculture fibroblast: HUF	0.855	0.716	0.6587	0.554	0.488	0.456	0.423	0.411	0.405
1 µM, coculture fibroblast: Hs27A	0.909	0.897	0.83	0.81	0.77	0.766	0.736	0.742	0.701
1 µM, coculture fibroblast: Hs343T	0.945	0.786	0.717	0.678	0.6056	0.5644	0.5214	0.492	0.484
1 µM, coculture fibroblast: WS1	0.831	0.6898	0.642	0.548	0.489	0.467	0.438	0.432	0.431
